# Source: PubChem BioAssay AID590 (National Center for Advancing Translational Sciences (NCATS), 2007)
# Hit rate of the full screen: of about 59,000 compounds, about 6,500 (11%) were called active. The shares of active, inactive and inconclusive entries below differ from those in the screen. No stated cut-off is given here; in the data, active means max dye-equivalent concentration above about 10 nM; inconclusive means mostly about 1.1 nM to 9.6 nM; inactive means weaker than that.
# Experiment: qHTS Assay for Spectroscopic Profiling in A350 Spectral Region
# Details: Compound autofluorescence, 340/450 nm, Alexa 350 dye-equivalents; stronger effect = higher value
row,Structure (SMILES),max dye-equivalent concentration
1,O=C(Cn1nc(Cl)nc1Cl)c1ccc2c(c1)OCCO2,inactive
2,Cc1cc(NC(=O)CCC2CCCC2)no1,inconclusive: 1.1 nM
3,N#Cc1nc(-c2ccc(OCc3ccc(Cl)cc3)cc2)oc1N1CCC(C(N)=O)CC1,inconclusive: 4.7 nM
4,Cc1cccc(NC(=O)CSc2nnc(CCCCCNC(=O)OC(C)(C)C)o2)c1C,inactive
5,CCN1CCCC1Cn1cnc2c([nH]c3ccc(Cl)cc32)c1=O (stereo unspecified),inconclusive: 2.2 nM
6,COc1ccc(-c2nc3cnc(N4CCN(C)CC4)nc3n(CCc3ccccc3)c2=O)cc1,inconclusive: 3.8 nM
7,CCOC(=O)CN1C(=O)COc2ccc(Cl)cc21,inactive
8,CC(NC(=O)COc1ccccc1)C1COc2ccccc2O1 (stereo unspecified),inactive
9,O=C(CSc1nnc(CNC(=O)c2cccs2)o1)NCCc1ccccc1,inactive
10,O=C(CSc1ncnc2c1oc1ccccc12)c1cccs1,inactive
11,COc1ccc(CCNC(=O)CN2CCC(n3nnc4cc(F)ccc43)CC2)cc1OC,inconclusive: 1.8 nM
12,CCOC(=O)c1c(C2CC2)csc1NC(C)=O,inactive
13,COCCn1c(=S)[nH]c2cc(C(=O)N3CCC(C(N)=O)(N4CCCCC4)CC3)ccc2c1=O,active: 12 nM
14,NC1=CC(=O)c2cccc3cccc1c23,inconclusive: 8.1 nM
15,Cc1ccc(S(=O)(=O)N2CCC(C(=O)N[C@@H](C)C(=O)Nc3ccc4c(c3)OCO4)CC2)cc1,active: 23 nM
16,CCOC(=O)c1[nH]c2ccc(OC)cc2c1NC(=O)OC,active: 38 nM
17,Cc1cccc(OCc2nnc(SCc3nc4cc(C(F)(F)F)ccc4c(=O)[nH]3)o2)c1,inconclusive: 4.3 nM
18,CC(=O)Oc1cc2c(C(=O)NCCCN3CCOCC3)c(C)oc2c2ccccc12,inconclusive: 2.1 nM
19,O=C(Nc1nc2c(s1)CCCC2)c1cccs1,inconclusive: 1.3 nM
20,Cc1ccc2cc(CNC(C)(C)C)c(=O)[nH]c2c1,active: 15 nM
21,Cc1cnc(C(=O)Nc2ccccc2-c2nnn(CC(=O)NC3CCCC3)n2)cn1,inconclusive: 1.4 nM
22,O=C1COc2ccc(C(=O)COC(=O)c3ccc4ccccc4n3)cc2N1,inconclusive: 1.3 nM
23,Cc1ccc(CNc2ccc(O)cc2)cc1,inconclusive: 1.1 nM
24,O=C(CNc1ccc(Oc2ccccc2)cc1)N1CCOCC1,inconclusive: 1.7 nM
25,CCOc1ccc(-n2c(SCC(=O)Nc3ccc4c(c3)OCCO4)nc3c(c2=O)SCC3)cc1,inconclusive: 1.3 nM
26,Cn1c(/C(C#N)=C/C2CC=CCC2)nc2ccccc21 (stereo unspecified),inconclusive: 1.2 nM

# Reformatted: entries from further up
row | Structure (SMILES) | max dye-equivalent concentration
4 | Cc1cccc(NC(=O)CSc2nnc(CCCCCNC(=O)OC(C)(C)C)o2)c1C | inactive
9 | O=C(CSc1nnc(CNC(=O)c2cccs2)o1)NCCc1ccccc1 | inactive
18 | CC(=O)Oc1cc2c(C(=O)NCCCN3CCOCC3)c(C)oc2c2ccccc12 | inconclusive: 2.1 nM
19 | O=C(Nc1nc2c(s1)CCCC2)c1cccs1 | inconclusive: 1.3 nM
25 | CCOc1ccc(-n2c(SCC(=O)Nc3ccc4c(c3)OCCO4)nc3c(c2=O)SCC3)cc1 | inconclusive: 1.3 nM
